Experimental data as given in PubChem BioAssay AID540276 (National Center for Advancing Translational Sciences (NCATS), 2011).
“And” between values parts separate entries of the source, which are not always exact repeats. Identical values can stand only once. Hit rate of the full screen: of about 300,000 compounds, about 5,400 (1.8%) were called active. Inconclusive means that the source gave no clear call. Such entries were picked first, then a sample of the others. The call rests on the fitted dose curve; tested in HEK293 cells. Where the call is inconclusive, the potency comes from a doubtful curve fit.

experiment: qHTS for inhibitors of binding or entry into cells for Marburg Virus; settings: Marburg virus pseudotyped entry inhibition, cell reporter; series mostly up to 37.8 µM
Potency means the concentration at half of the fitted maximal effect.

Structure (SMILES) | Potency
COC(=O)C1=C(C)Nc2c(c(=O)n(C)c(=O)n2C)C1c1ccncc1 (stereo unspecified) | inactive
Cc1ccsc1CN(C)CC(=O)Nc1ccc([N+](=O)[O-])cc1Cl | active: 10 µM
Cc1c(C=O)c2ccccc2n1CC(=O)NC(C)c1ccccc1 (stereo unspecified) | inconclusive: 7.94 µM [inhibitor, partial curve, poor fit]
CCCCN(C(=O)c1cccc(S(=O)(=O)N2CCN(Cc3ccccc3)CC2)c1)c1ccccc1 | inconclusive: 20 µM [inhibitor, partial curve, poor fit]
COc1ccc(-c2cc3nc(C)c(CCC(=O)NC(C)c4ccccc4)c(C)n3n2)c(OC)c1 (stereo unspecified) | inconclusive: 8.91 µM [inhibitor, partial curve, poor fit]
COc1ccc(S(=O)(=O)NC(C(C)C)C(C)C)cc1OC | inactive
O=C(CN1CCCc2ccccc21)N/N=C/c1ccccc1O | inconclusive: 29.1 µM [inhibitor, single point]
CC(C)CN(C(=O)COC(=O)c1cc(=O)[nH]c2ccccc12)c1c(N)n(Cc2ccccc2)c(=O)[nH]c1=O | inconclusive: 1.26 µM [activator, single point]
CCN1CCN(c2ccc(NC(=O)c3ccc(Cl)c(S(=O)(=O)N4CCCC4)c3)cc2)CC1 | inconclusive: 1.78 µM [inhibitor, partial curve, poor fit]
Cc1nc(N2CCN(c3ccccn3)CC2)c2c(C)c(C(=O)Nc3ccc(F)cc3F)sc2n1 | inactive
CC(C)c1ccc(OC(=O)NCCO)cc1 | inconclusive: 12.6 µM [activator, single point]
CS(=O)(=O)/C(C#N)=C/c1cccn1S(=O)(=O)c1ccccc1 | inconclusive: 0.794 µM [inhibitor, single point]
CN(Cc1cccc2ccccc12)C(=O)c1cc(COc2c(F)cccc2F)on1 | inconclusive: 4.47 µM [inhibitor, full curve, poor fit]
COc1cccc(NC(=O)CSc2c3c(nc4ccccc24)CCCC3)c1 | inconclusive: 23.1 µM [inhibitor, single point] and inconclusive: 35.5 µM [inhibitor, single point]
Cc1ccccc1NC(=S)NC(C)C(c1ccccc1)N1CCN(C)CC1 (stereo unspecified) | inconclusive: 5.62 µM [activator, single point]
COC(=O)C1=C(C)N(c2ccc(OC)cc2)C(=O)/C1=C\c1cccs1 | inconclusive: 0.501 µM [activator, full curve, poor fit]
Cc1[nH]nc(Nc2ccccc2)c1[N+](=O)[O-] | inactive
CC1CCN(c2ccc(S(=O)(=O)NC3=NCCCCC3)cc2[N+](=O)[O-])CC1 | inconclusive: 22.4 µM [inhibitor, single point]
COc1ccc(CCN)cc1O | inconclusive: 35.5 µM [activator, single point]
Cc1ccc(S/C=C\C(=O)c2ccccc2)cc1 | inconclusive: 0.13 µM [activator, single point]
CCCn1nc(C(=O)Nc2nc3ccccc3[nH]2)c2ccccc2c1=O | inactive
CC(Sc1nc2ccccc2s1)C(=O)Nc1ccc2c(c1)OCO2 (stereo unspecified) | inconclusive: 35.5 µM [activator, single point]
O=C(c1cnn(C(=O)COc2ccc(Cl)cc2)c1)c1ccccc1O | inconclusive: 35.5 µM [activator, single point]
COC(=O)C=C1CCC2C3CCC4=CC(=O)C(Br)CC4(C)C3C(=O)CC12C (stereo unspecified) | active: 11.2 µM

Structure (SMILES) | Potency
O=C(Nc1ccccc1NC(=O)c1ccco1)c1ccccc1 | inactive
CCCCCSc1nnc2c(n1)[nH]c1c(C)cccc12 | inactive
COc1ccc(OC(=O)c2cc3ccccc3o2)cc1 | inactive
COCCCn1c(=NC(=O)c2ccccc2)c(C#N)cc2c(=O)n3cccc(C)c3nc21 | inconclusive: 0.794 µM [inhibitor, full curve, poor fit]
Cc1cc(Br)cnc1NC(=S)Nc1ccc(F)cc1F | inconclusive: 14.1 µM [activator, single point]
C/C(=N\Nc1ncc(Cl)cc1Cl)c1ccc(N2CCOCC2)cc1 | inconclusive: 1.58 µM [inhibitor, partial curve, poor fit]
O=C(NCc1ccco1)Nc1cccs1 | inactive
COC(=O)CNC(=O)CN1C(=O)N(c2cccc(Cl)c2)C(N(O)C(=O)Nc2cccc(Cl)c2)C1(C)C (stereo unspecified) | inactive
CCCCC(=O)Nc1ccnc(-c2cccnc2)n1 | inactive
COCCNC(=O)C(c1ccc(C)o1)N(C(=O)C(=O)NC1CCCCC1)c1ccc(F)cc1 (stereo unspecified) | inactive
CCCCCn1ccc(=O)c2c(C(F)(F)F)nccc21 | inconclusive: 3.26 µM [inhibitor, partial curve, poor fit]
Cc1ccc(NC(=S)NC2CC3CCCC(C2)N3Cc2ccco2)cc1 (stereo unspecified) | inconclusive: 3.16 µM [inhibitor, full curve]
O=c1[nH]c2cc(Cl)c(Br)cc2o1 | inactive
O=[N+]([O-])c1cc(C(F)(F)F)ccc1NCCCCNS(=O)(=O)c1ccc(Cl)cc1 | inconclusive: 25.1 µM [inhibitor, single point]
Cc1cc2c(C)nc(N/N=C/c3ccccc3)nc2o1 | inconclusive: 6.51 µM [activator, single point]
COc1cc2c(cc1OC)CN(C(=O)C(CCSC)NS(=O)(=O)c1ccc(C)cc1)CC2 (stereo unspecified) | inactive
O=C(c1cc(=O)[nH]c2ccccc12)N1CC=C(c2ccccc2)CC1 | inconclusive: 3.16 µM [inhibitor, partial curve, poor fit]
Cc1ccc(S(=O)(=O)NCC(c2ccco2)N2CCc3ccccc32)cc1 (stereo unspecified) | inconclusive: 11.2 µM [inhibitor, partial curve, poor fit]
CCCN1CCN(C(=O)Nc2ccc(C(=O)OCC)cc2)CC1 | inactive
Cc1nc2nc(C)c(CCC(=O)NCc3ccc4c(c3)OCO4)c(C)n2n1 | inactive
Cc1ccc(CNC(=O)CNC(=S)N(Cc2ccccc2)Cc2ccccc2F)cc1 | inconclusive: 35.5 µM [inhibitor, single point]
COC1CCC2(C)C(=CCC3C4CC(O)CC4(C)CCC32)C1 (stereo unspecified) | inactive
CC(=O)Nc1ccccc1N(C)S(=O)(=O)c1ccc(C)cc1 | inconclusive: 2.06 µM [inhibitor, full curve]
COc1cccc(C(=O)NC(Cc2ccccc2)c2ccc3c(c2)OCCCO3)c1 (stereo unspecified) | inconclusive: 32.6 µM [inhibitor, partial curve, poor fit]

Structure (SMILES) | Potency
Cc1cc(/C=N/NC(=O)c2cccs2)c(C)n1-c1ccccc1 | inconclusive: 4.61 µM [inhibitor, full curve, poor fit]
O=C(COc1ccccc1)Nc1cccc(-c2nc3ccccc3[nH]2)c1 | inconclusive: 5.01 µM [activator, single point]
CCc1cccc(NS(=O)(=O)c2cccc3cccnc23)c1 | inconclusive: 1.26 µM [inhibitor, partial curve, poor fit]
CCNC(=O)/C(=C/c1ccco1)NC(=O)/C=C/c1ccccc1 | inconclusive: 6.51 µM [inhibitor, single point]
Cn1c(-c2ccc3ccccc3n2)nc2cnccc21 | inactive
CC(=O)C1=C(O)C(=O)N(c2cccc(C(=O)O)c2)[C@@H]1c1ccc(F)cc1 | inactive
CC1CC(=O)N(c2ccc(NCCc3ccccc3)c([N+](=O)[O-])c2)C1=O (stereo unspecified) | inactive
CC1(C)CC(=O)C(C=Nc2ccc3cn[nH]c3c2)=C(O)C1 | inactive
CCOC(=O)C(NC(=O)CC)(Nc1cc(C)on1)C(F)(F)F (stereo unspecified) | inconclusive: 35.5 µM [activator, single point]
COC(=O)c1cc(C(=O)N2CCN(c3ncccn3)CC2)cc([N+](=O)[O-])c1 | inactive
CCCCOc1ccc(C(=O)NCc2cn3cccc(C)c3n2)cc1 | inactive
CCCNCc1cc(OC)c(OCc2ccccc2)cc1Br | active: 11.2 µM
O=C(c1ccco1)N1CCN(Cc2cccc3ccccc23)CC1 | active: 5.01 µM
N/C(=N\OC(=O)c1cccc(Cl)c1)c1cccnc1 | inconclusive: 7.94 µM [activator, partial curve]
CCC(C)(C)n1nnnc1C(c1cc2cc3c(cc2[nH]c1=O)OCO3)N1CCCCC1 (stereo unspecified) | inactive
O=C(O)c1ccccc1NS(=O)(=O)c1cccc(NS(=O)(=O)c2cc(Br)ccc2Br)c1 | inconclusive: 35.5 µM [inhibitor, single point]
S=C(Nc1ccc(Cl)cc1Cl)NC1CCN(Cc2ccccc2)CC1 | inconclusive: 10 µM [inhibitor, partial curve, poor fit]
Fc1ccccc1N1CCN(c2ncnc3onc(-c4ccc(Cl)cc4)c23)CC1 | inactive
Nc1ccc(C(=O)Nc2nccs2)cc1 | inconclusive: 10 µM [activator, partial curve, poor fit]
O=C(CN1CCN(c2ccc(F)cc2)CC1)Nc1ccc(F)c(F)c1 | inconclusive: 0.0126 µM [inhibitor, partial curve, poor fit]
COC(=O)[C@@H]1CC[C@H](C)[C@@H](c2ccc(C)cc2)N1C(=O)c1ccc(/C=N/O[C@@H](C)CN2CCCCc3nc(C)c(C)cc32)cc1 | inconclusive: 0.058 µM [inhibitor, full curve, poor fit]
COc1cc2c(cc1NC(=O)c1ccncc1)oc1ccccc12 | inactive
CCCOc1ccccc1C(=O)N(Cc1cccc(Br)c1)C1CCS(=O)(=O)C1 (stereo unspecified) | inconclusive: 11.2 µM [inhibitor, partial curve, poor fit]
